Source: PubChem BioAssay AID1508597 (Cure First, 2020)

- Test: 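Genes whose silencing sensitises or protects ovarian cancer cells against rucaparib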 (primary screen)
- Cells: human ovarian carcinoma lines grown from tumours: OCI-P5x (papillary serous) and OCI-C5x (clear cell)
- Knock-down reagent: siRNA pool against human genes, 1.25 pmol siRNA per well
- Time to read-out: 72 h or 96 h, depending on the cell culture
- Treatment: rucaparib 20 µM (about IC30) or vehicle, present until read-out
- Rucaparib or vehicle: Vehicle
- Cell line: OCI-P5x (serous)
- Detection: 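ATP luminescence measured at 72 or 96 h according to the culture, then normalised and expressed as percent viability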
- Reading the numbers: viability, normalised: higher = more viable cells remaining
- Hit rule: 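a well counts as a hit if its normalised viability is under 80 percent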
- Calls: active = viability under 80%; inactive = viability 80% or more
Shown is an unselected part of the about 2,100 reagents, in one setting of the screen. 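Calls flag viability under 80% in either arm, not effects specific to rucaparib; the reference for percent is not stated.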 No sequences are given here. Not stated in the record: the 100% reference.

{"target": "RMI1 (RecQ mediated genome instability 1)", "PubChem SID": "SID405528378", "technical replicate": "1", "viability, normalised (%)": 106, "activity call": "inactive"}
{"target": "RMI1 (RecQ mediated genome instability 1)", "PubChem SID": "SID405528378", "technical replicate": "2", "viability, normalised (%)": 86.4, "activity call": "inactive"}
{"target": "RMI1 (RecQ mediated genome instability 1)", "PubChem SID": "SID405528378", "technical replicate": "3", "viability, normalised (%)": 92.5, "activity call": "inactive"}
{"target": "AGO2 (argonaute RISC catalytic component 2)", "PubChem SID": "SID405527955", "technical replicate": "1", "viability, normalised (%)": 64.6, "activity call": "active"}
{"target": "AGO2 (argonaute RISC catalytic component 2)", "PubChem SID": "SID405527955", "technical replicate": "2", "viability, normalised (%)": 68.2, "activity call": "active"}
{"target": "AGO2 (argonaute RISC catalytic component 2)", "PubChem SID": "SID405527955", "technical replicate": "3", "viability, normalised (%)": 85.9, "activity call": "inactive"}
{"target": "LHCGR (luteinizing hormone/choriogonadotropin receptor)", "PubChem SID": "SID405526954", "technical replicate": "1", "viability, normalised (%)": 41.1, "activity call": "active"}
{"target": "LHCGR (luteinizing hormone/choriogonadotropin receptor)", "PubChem SID": "SID405526954", "technical replicate": "2", "viability, normalised (%)": 58.9, "activity call": "active"}
{"target": "LHCGR (luteinizing hormone/choriogonadotropin receptor)", "PubChem SID": "SID405526954", "technical replicate": "3", "viability, normalised (%)": 56.2, "activity call": "active"}
{"target": "SGK3 (serum/glucocorticoid regulated kinase family member 3)", "PubChem SID": "SID405527736", "technical replicate": "1", "viability, normalised (%)": 67.8, "activity call": "active"}
{"target": "SGK3 (serum/glucocorticoid regulated kinase family member 3)", "PubChem SID": "SID405527736", "technical replicate": "2", "viability, normalised (%)": 54.4, "activity call": "active"}
{"target": "SGK3 (serum/glucocorticoid regulated kinase family member 3)", "PubChem SID": "SID405527736", "technical replicate": "3", "viability, normalised (%)": 65, "activity call": "active"}
